# Source: the supplement of paper PMC12819154, “High-throughput peptide-centric local stability assay extends protein–ligand identification to membrane proteins, tissues and bacteria” (Nature Structural & Molecular Biology, 2025)
# The list shows a part of the results. Most values lie at the level of the controls, where differences are scatter.
# What was measured:
# UniProt P0A9Q9 = target: T1, UniProt P0A9Q9; assay: log2 fold change of tryptic peptide abundance, ligand vs vehicle (limited proteolysis) (log2 ratio); higher = more trypsin-susceptible (destabilized); conditions: peptide sequence: EEWKGQAETNK; peptide start residue: 241; ligand concentration: 10 uM; sample: E. coli crude lysate
# T1 sequence (whole entry): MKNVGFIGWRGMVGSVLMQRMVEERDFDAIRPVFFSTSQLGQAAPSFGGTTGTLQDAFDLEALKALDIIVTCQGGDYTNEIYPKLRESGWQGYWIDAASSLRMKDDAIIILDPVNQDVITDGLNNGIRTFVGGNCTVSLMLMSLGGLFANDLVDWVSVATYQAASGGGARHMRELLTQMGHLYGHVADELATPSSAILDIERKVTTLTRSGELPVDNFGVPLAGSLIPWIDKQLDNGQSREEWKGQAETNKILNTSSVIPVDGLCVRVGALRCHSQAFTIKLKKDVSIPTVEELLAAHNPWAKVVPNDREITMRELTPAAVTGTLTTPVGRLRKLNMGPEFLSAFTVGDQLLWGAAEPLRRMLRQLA
# UniProt P0AB87 = target: T2, UniProt P0AB87; assay: as above; conditions: peptide sequence: KATLLQHHGLIACEVNLEK; peptide start residue: 148; ligand concentration: 10 uM; sample: E. coli crude lysate
# T2 sequence (whole entry): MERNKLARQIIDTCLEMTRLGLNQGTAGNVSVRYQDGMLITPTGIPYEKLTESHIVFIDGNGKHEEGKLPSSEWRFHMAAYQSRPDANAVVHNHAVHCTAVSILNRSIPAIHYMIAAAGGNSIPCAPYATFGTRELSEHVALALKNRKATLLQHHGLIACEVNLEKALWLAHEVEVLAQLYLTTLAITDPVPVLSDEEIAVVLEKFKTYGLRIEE
smiles,measurement,setting,value
CC1(C)S[C@@H]2[C@H](NC(=O)[C@H](N)c3ccccc3)C(=O)N2[C@H]1C(=O)O [ampicillin],log2 fold change,UniProt P0A9Q9,-0.242
same,log2 fold change,UniProt P0AB87,-0.294
